The text below walks through data of publication doi:10.1101/842476.

Protein sequences, listed by entry. Tags and fused reporters are not part of them. Residues count along the entry.
UniProt Q5M848: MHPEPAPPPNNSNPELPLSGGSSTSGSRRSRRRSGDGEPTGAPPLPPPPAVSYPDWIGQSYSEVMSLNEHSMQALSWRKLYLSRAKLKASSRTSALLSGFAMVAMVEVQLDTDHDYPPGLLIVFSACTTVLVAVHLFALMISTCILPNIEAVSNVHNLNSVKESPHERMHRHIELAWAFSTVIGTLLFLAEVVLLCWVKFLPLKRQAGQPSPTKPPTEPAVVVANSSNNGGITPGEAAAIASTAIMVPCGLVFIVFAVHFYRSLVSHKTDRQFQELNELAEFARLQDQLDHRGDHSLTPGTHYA
UniProt P84903, residues 23-685: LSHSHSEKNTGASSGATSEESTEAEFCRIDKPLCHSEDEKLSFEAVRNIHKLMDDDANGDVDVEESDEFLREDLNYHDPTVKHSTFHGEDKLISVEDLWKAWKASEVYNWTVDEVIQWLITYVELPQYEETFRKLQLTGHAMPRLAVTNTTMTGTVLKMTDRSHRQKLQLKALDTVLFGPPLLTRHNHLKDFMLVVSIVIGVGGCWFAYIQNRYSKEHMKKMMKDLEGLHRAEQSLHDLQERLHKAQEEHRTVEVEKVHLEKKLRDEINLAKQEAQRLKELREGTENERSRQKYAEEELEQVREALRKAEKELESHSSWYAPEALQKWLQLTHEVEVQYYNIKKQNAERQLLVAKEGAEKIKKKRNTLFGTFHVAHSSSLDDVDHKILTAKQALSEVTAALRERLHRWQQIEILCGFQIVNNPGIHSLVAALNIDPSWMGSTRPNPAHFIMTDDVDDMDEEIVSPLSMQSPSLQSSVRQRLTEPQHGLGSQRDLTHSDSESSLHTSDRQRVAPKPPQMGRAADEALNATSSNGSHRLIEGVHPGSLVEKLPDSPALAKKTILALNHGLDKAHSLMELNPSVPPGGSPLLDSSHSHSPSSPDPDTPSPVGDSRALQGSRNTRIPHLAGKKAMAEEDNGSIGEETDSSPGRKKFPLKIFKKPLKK

Results are given in words; binding and its absence hold for the method and conditions named. In cells and extracts the contact can be indirect. Some entries that bind do so weakly or less than the wild type.

The assay concerns the target Orai1 (rat (endogenous in DRG neurons)) (UniProt Q5M848). Kind of assay: proximity ligation.

With STIM1 (from UniProt P84903 23-685), the binding result is listed as “binds”.
